Measured data: PubChem BioAssay AID720710 (VTT Finland, 2013)
In all, the deposit lists about 1,380 reagents; this is a random part of them. 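One array per condition without replicates; hydroxyurea arrays received 2 mM for 16 h plus 3 h recovery.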 The numbers tell different reagents against one gene apart. Further read-outs or replicates are left out here. Reagent sequences are not shown.

- Purpose: 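Genes whose loss lowers DNA synthesis when an oncogene drives replication stress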 (primary screen)
- System: human U-2 OS bone cancer cells, parental and a cyclin E (CCNE1) overexpressing line
- Knock-down reagent: single siRNA against human genes, 1 µM siRNA in the printed spot mix
- Timing: 67 h
- Conditions: half the arrays: hydroxyurea 2 mM for 16 h, then 3 h recovery; other arrays untreated
- Measurement: 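DNA synthesis measured as imaged EdU uptake per nucleus (DAPI) at 67 h, normalised to subgrid median and given as z-score versus non-targeting controls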
- Direction: EdU z-score, cyclin E line, hydroxyurea: higher = more DNA synthesis than non-targeting controls

| Gene | reagent no. | EdU z-score, cyclin E line, hydroxyurea |
| --- | --- | --- |
| FOXP3 (forkhead box P3) | 1 | -0.72 |
| FOXP3 (forkhead box P3) | 2 | 0.892 |
| CDC23 (cell division cycle 23) | 1 | -0.268 |
| CDC23 (cell division cycle 23) | 2 | 0.258 |
| BCCIP (BRCA2 and CDKN1A interacting protein) | 1 | 0.2 |
| BCCIP (BRCA2 and CDKN1A interacting protein) | 2 | 0.711 |
| KLHL40 (kelch like family member 40) | 1 | -1.48 |
| KLHL40 (kelch like family member 40) | 2 | -0.688 |
| APC (APC regulator of Wnt signaling pathway) | 1 | -1.63 |
| APC (APC regulator of Wnt signaling pathway) | 2 | -0.562 |
| LOC729687 | 1 | -0.578 |
| LOC729687 | 2 | -0.305 |
| RNF149 (ring finger protein 149) | 1 | -0.284 |
| RNF149 (ring finger protein 149) | 2 | -0.00263 |
| CDC34 (cell division cycle 34, ubiquitin conjugating enzyme) | 1 | -1.04 |
| CDC34 (cell division cycle 34, ubiquitin conjugating enzyme) | 2 | 0.211 |
| HUWE1 | 1 | -0.281 |
| HUWE1 | 2 | -0.113 |
| ELN (elastin) | 1 | -0.876 |
| ELN (elastin) | 2 | 0.665 |
| REV3L (REV3 like, DNA directed polymerase zeta catalytic subunit) | 1 | -2.48 |
| REV3L (REV3 like, DNA directed polymerase zeta catalytic subunit) | 2 | 0.876 |
| NT5M (5',3'-nucleotidase, mitochondrial) | 1 | 0.044 |
| NT5M (5',3'-nucleotidase, mitochondrial) | 2 | 2 |
| RBM14 (RNA binding motif protein 14) | 1 | -2.2 |
| RBM14 (RNA binding motif protein 14) | 2 | 0.351 |
| H4C4 (H4 clustered histone 4) | 1 | -1.01 |
| H4C4 (H4 clustered histone 4) | 2 | 1.34 |
| LATS1 (large tumor suppressor kinase 1) | 1 | 0.405 |
| LATS1 (large tumor suppressor kinase 1) | 2 | 1.16 |
| SIRT4 (sirtuin 4) | 1 | -0.345 |
| SIRT4 (sirtuin 4) | 2 | 0.513 |
| STAG1 (STAG1 cohesin complex component) | 1 | 0.323 |
| STAG1 (STAG1 cohesin complex component) | 2 | 1.09 |
| MRPS26 (mitochondrial ribosomal protein S26) | 1 | -0.674 |
| MRPS26 (mitochondrial ribosomal protein S26) | 2 | 2.34 |
| XAB2 (XPA binding protein 2) | 1 | 1.24 |
| XAB2 (XPA binding protein 2) | 2 | 2.26 |
| NSMCE1 (NSE1 component of SMC5/6 complex) | 1 | -2.15 |
| NSMCE1 (NSE1 component of SMC5/6 complex) | 2 | -0.39 |
| PSMC4 (proteasome 26S subunit, ATPase 4) | 1 | -1.93 |
| PSMC4 (proteasome 26S subunit, ATPase 4) | 2 | 1.31 |
| POLA1 (DNA polymerase alpha 1, catalytic subunit) | 1 | 0.365 |
| POLA1 (DNA polymerase alpha 1, catalytic subunit) | 2 | 0.617 |
| LOC646359 | 1 | -2.06 |
| LOC646359 | 2 | 1.09 |
| TFAM (transcription factor A, mitochondrial) | 1 | -0.145 |
| TFAM (transcription factor A, mitochondrial) | 2 | 0.867 |
| VPS4B (vacuolar protein sorting 4 homolog B) | 1 | -0.95 |
| VPS4B (vacuolar protein sorting 4 homolog B) | 2 | 0.557 |
| POLL (DNA polymerase lambda) | 1 | 0.269 |
| POLL (DNA polymerase lambda) | 2 | 2.76 |
| NAP1L3 (nucleosome assembly protein 1 like 3) | 1 | -1.53 |
| NAP1L3 (nucleosome assembly protein 1 like 3) | 2 | 0.65 |
| MCM3 (minichromosome maintenance complex component 3) | 1 | -0.978 |
| MCM3 (minichromosome maintenance complex component 3) | 2 | 0.539 |
| RAD9B (RAD9 checkpoint clamp component B) | 1 | -1.38 |
| RAD9B (RAD9 checkpoint clamp component B) | 2 | 0.0582 |
